The target in experiment [1] is FLAG-tagged CREB1 (cAMP response element binding protein 1) (UniProt P16220). The experiment is described as follows: co-IP; HEK293 cells co-transfected with FLAG-CREB1 and GFP-BAF47; whole cell lysates in RIPA buffer (50 mM Tris pH7.4, 150 mM NaCl, 1% Triton X-100); immunoprecipitation with anti-FLAG or anti-GFP, Protein A/G-plus agarose, Western blot. (Immunoblotting shows a protein as a band on a membrane.)

Amino acid sequences for entries named in this document (tags omitted).
UniProt P16220: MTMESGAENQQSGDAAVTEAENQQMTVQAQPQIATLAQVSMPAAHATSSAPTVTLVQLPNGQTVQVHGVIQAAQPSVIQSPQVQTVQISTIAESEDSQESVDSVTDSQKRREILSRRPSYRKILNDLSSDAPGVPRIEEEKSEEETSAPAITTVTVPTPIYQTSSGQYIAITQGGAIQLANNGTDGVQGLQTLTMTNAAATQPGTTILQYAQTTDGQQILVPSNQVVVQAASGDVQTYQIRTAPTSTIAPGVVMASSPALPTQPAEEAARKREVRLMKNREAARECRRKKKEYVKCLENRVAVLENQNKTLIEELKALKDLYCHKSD
UniProt Q12824: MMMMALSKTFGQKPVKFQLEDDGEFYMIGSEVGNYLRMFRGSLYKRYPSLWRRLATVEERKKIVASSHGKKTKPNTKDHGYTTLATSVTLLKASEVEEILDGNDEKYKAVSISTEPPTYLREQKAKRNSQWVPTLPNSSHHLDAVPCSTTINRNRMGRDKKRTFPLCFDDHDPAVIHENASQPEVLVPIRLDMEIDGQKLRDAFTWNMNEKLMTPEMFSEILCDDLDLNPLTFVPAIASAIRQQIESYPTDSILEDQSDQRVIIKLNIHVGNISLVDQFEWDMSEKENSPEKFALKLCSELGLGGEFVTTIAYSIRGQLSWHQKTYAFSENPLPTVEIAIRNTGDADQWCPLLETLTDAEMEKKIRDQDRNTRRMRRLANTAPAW

Experiment [2] addresses CREB1 (endogenous, endothelial cells) (human (endogenous in EAhy926 and HAEC)) (UniProt P16220). The experiment is described as follows: Re-ChIP (sequential chromatin immunoprecipitation); EAhy926 cells and HAECs with or without oxLDL (50 ug/ml, 24 h); 1% formaldehyde cross-linked, sonicated chromatin; first immune complexes eluted (1% SDS, 100 mM NaCO3) and precipitated with a second antibody; read-out: Neo-1 promoter DNA.

Experiment [3] has as its target GFP-tagged BAF47 (Brg1-associated factor 47) (UniProt Q12824). The experiment is described as follows: co-IP; HEK293 cells co-transfected with FLAG-CREB1 and GFP-BAF47; whole cell lysates in RIPA buffer (50 mM Tris pH7.4, 150 mM NaCl, 1% Triton X-100); immunoprecipitation with anti-FLAG or anti-GFP, Protein A/G-plus agarose, Western blot.

No constants are given. Whether binding was seen depends on the method and setting. For part of these data: Binding seen in cells or lysates may run through a third protein. Some results given as binding are weak or reduced against the parent protein; the word gives no strength.

Regarding “GFP-tagged BAF47 (Brg1-associated factor 47) (from UniProt Q12824 1-385)”, in experiment [1], the binding entry is “binds”.
With “BAF47 (endogenous, endothelial cells) (from UniProt Q12824 1-385)”, in experiment [2], the binding result is recorded as “binds”.
“FLAG-tagged CREB1 (cAMP response element binding protein 1) (from UniProt P16220 1-327)”: the binding result in experiment [3] was “binds”.

The values above are taken from paper PMC8851423.
